Test results reported in the supplement of paper PMC7666118.
Some of the results follow.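 How the source made its calls: active = dose-dependent thermal stabilisation significant by F-test of dose-response against flat model at 10% FDR; inactive = not significant.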

The chains behind the UniProt entries cited, without tags or fusion partners. Where a name states a change or a piece, a line headed by the entry shows the natural chain unless it says otherwise.
UniProt Q9UKF6: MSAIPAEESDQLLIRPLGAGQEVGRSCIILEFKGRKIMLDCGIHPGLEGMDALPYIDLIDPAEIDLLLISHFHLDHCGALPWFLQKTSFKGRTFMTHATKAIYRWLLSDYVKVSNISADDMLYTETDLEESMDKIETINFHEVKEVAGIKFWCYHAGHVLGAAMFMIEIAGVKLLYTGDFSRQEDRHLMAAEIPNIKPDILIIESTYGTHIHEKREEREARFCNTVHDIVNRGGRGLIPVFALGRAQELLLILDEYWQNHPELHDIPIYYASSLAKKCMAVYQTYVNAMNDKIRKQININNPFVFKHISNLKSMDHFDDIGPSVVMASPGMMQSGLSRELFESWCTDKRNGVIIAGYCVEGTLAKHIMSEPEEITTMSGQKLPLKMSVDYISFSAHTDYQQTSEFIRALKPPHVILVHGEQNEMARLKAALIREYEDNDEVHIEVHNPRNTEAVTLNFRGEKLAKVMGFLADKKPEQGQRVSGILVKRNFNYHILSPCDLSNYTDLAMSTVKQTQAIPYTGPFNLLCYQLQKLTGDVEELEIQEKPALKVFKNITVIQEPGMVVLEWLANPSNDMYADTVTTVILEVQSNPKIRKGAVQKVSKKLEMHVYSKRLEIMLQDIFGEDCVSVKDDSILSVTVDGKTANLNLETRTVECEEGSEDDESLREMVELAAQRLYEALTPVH
UniProt P53618: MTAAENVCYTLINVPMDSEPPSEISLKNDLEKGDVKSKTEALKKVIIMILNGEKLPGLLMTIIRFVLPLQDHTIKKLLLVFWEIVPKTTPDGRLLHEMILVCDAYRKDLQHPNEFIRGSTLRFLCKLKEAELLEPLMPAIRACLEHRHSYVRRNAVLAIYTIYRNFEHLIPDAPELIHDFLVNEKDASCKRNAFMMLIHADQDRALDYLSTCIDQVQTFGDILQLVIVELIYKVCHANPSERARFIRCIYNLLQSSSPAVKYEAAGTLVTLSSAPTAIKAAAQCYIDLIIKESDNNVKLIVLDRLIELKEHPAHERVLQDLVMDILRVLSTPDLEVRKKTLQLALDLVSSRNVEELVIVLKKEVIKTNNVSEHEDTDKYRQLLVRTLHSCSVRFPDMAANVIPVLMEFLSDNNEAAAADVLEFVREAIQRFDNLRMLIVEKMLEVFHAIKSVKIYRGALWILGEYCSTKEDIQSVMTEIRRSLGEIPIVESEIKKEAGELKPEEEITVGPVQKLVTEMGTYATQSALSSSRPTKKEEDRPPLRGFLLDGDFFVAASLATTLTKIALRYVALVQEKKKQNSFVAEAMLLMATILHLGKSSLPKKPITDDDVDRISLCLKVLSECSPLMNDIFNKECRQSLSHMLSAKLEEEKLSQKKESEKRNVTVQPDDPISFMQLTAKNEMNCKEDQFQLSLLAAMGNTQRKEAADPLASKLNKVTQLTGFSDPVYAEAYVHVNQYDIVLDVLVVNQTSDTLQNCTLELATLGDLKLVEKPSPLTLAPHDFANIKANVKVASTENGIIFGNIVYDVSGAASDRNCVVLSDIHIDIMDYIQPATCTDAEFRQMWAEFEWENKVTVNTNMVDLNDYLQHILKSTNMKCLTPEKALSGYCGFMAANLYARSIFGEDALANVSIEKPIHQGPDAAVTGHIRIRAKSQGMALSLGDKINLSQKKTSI
UniProt O14579: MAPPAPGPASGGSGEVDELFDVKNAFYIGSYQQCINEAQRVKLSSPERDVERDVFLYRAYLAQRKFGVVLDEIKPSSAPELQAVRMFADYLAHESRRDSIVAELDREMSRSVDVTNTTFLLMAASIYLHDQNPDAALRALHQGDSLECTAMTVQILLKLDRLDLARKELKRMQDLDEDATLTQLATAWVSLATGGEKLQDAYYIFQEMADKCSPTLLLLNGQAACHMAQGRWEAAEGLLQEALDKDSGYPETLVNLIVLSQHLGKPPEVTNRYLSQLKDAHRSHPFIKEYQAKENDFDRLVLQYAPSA
UniProt Q9HAW4: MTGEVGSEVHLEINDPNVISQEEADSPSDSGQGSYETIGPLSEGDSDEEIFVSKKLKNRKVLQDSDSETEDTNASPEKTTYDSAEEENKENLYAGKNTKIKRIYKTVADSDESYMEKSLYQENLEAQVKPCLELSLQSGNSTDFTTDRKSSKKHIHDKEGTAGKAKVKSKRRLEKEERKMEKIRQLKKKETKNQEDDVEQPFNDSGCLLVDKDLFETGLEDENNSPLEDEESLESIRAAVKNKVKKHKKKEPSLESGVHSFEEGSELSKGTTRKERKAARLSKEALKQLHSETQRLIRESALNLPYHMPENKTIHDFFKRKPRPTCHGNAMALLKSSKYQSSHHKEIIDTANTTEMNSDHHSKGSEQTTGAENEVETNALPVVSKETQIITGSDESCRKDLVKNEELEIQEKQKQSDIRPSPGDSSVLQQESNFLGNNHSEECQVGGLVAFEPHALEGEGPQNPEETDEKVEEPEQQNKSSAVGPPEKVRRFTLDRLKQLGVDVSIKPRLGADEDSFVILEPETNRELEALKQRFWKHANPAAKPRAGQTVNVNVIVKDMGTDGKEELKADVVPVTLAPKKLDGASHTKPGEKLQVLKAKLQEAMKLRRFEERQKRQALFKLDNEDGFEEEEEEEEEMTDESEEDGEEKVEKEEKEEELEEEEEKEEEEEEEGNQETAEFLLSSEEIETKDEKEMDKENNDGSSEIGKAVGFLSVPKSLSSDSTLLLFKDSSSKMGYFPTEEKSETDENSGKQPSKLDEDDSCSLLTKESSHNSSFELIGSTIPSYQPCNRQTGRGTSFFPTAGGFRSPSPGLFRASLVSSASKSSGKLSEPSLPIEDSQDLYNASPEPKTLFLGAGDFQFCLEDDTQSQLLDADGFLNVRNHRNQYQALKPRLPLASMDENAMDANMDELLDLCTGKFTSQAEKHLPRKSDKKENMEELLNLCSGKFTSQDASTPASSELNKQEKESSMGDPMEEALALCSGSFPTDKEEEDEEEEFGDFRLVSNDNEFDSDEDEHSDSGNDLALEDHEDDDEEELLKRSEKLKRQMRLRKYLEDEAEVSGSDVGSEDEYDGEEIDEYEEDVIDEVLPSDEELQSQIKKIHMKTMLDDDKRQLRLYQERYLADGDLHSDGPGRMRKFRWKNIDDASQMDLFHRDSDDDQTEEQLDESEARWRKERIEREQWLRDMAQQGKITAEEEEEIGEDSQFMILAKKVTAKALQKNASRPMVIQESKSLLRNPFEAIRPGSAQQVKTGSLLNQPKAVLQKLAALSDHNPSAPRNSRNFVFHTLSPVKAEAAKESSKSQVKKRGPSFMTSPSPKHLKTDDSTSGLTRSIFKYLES
UniProt O75503: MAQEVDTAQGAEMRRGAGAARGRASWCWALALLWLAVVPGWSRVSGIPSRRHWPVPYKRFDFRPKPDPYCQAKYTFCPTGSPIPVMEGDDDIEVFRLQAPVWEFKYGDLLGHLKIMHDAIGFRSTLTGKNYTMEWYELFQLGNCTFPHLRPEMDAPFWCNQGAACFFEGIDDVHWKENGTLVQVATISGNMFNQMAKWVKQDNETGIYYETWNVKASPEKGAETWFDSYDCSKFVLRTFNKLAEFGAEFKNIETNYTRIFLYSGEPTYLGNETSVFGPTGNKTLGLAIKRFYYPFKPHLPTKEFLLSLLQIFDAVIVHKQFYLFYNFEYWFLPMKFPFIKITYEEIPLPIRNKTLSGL
UniProt P24386: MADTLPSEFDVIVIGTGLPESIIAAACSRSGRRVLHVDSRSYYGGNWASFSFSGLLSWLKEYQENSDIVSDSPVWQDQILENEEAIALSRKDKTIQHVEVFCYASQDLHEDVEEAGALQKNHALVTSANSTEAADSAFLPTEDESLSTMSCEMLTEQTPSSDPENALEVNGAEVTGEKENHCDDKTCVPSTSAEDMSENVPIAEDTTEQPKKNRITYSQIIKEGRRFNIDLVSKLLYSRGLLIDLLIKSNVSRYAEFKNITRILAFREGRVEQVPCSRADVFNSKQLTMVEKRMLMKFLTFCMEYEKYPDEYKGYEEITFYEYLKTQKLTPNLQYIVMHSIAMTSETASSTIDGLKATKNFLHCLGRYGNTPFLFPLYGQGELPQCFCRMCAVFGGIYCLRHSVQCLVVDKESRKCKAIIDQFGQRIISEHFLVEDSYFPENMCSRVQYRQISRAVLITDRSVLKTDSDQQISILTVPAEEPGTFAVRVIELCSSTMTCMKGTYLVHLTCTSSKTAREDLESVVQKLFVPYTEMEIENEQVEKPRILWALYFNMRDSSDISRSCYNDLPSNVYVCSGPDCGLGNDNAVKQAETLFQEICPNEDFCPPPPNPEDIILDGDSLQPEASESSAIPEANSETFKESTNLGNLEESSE
UniProt Q9UBW8: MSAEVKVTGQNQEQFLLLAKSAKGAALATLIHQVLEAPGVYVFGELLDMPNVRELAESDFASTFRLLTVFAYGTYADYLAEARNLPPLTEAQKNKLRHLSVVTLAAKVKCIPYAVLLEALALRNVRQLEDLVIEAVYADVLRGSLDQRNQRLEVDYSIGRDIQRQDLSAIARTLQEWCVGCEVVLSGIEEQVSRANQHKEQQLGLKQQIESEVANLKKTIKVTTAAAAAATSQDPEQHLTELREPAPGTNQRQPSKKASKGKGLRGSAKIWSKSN
UniProt Q96F63: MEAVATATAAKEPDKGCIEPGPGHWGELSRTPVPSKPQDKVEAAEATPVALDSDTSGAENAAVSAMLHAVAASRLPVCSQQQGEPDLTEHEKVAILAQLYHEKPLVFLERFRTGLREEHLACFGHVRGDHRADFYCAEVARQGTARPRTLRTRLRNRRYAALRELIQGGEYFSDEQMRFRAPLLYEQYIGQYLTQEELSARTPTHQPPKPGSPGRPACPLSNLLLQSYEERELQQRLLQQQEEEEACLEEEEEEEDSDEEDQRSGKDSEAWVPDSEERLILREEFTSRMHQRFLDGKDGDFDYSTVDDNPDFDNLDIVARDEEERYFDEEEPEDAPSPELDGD
UniProt Q14746: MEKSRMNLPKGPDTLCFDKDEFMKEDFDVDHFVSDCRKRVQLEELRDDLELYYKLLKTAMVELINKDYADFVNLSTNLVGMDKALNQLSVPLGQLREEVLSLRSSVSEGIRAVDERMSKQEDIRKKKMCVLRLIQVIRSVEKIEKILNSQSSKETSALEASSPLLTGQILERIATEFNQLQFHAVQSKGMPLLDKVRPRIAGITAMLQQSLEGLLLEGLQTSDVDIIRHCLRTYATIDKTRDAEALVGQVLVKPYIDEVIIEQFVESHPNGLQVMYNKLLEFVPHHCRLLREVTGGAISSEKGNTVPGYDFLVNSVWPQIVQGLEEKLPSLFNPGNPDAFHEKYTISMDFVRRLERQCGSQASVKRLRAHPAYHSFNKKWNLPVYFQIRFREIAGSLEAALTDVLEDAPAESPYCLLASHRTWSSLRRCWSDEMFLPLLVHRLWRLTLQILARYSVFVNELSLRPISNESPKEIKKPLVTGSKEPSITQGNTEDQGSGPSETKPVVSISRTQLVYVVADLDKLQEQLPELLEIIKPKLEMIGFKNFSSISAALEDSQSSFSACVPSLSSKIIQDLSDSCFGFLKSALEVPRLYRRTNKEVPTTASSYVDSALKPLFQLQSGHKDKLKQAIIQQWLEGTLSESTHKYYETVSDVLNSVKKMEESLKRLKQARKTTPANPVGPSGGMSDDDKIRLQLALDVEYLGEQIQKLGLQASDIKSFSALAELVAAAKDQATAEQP

The targets below were run with Nc1nc2c(ncn2[C@@H]2O[C@H](COP(=O)(O)OP(=O)(O)OP(=O)(O)O)[C@@H](O)[C@H]2O)c(=O)[nH]1 (assay: dose-dependent thermal stabilisation call (2D-TPP, DLPTP, 10% FDR) (binary (1 = stabilised)); higher = stabilised by the compound). Conditions: system: Jurkat gel-filtered lysate; concentration range 1-500 µM.

Row | Target | dose-dependent thermal stabilisation call
1 | CPSF3 (UniProt Q9UKF6) | inactive: 0
2 | COPB1 (UniProt P53618) | inactive: 0
3 | COPE (UniProt O14579) | inactive: 0
4 | CLSPN (UniProt Q9HAW4) | inactive: 0
5 | CLN5 (UniProt O75503) | inactive: 0
6 | CHM (UniProt P24386) | inactive: 0
7 | COPS7A (UniProt Q9UBW8) | inactive: 0
8 | CCDC97 (UniProt Q96F63) | inactive: 0
9 | COG2 (UniProt Q14746) | active: 1
